For one molecule, EC50 results are on record in publication PMC8577994 (Cell Reports, 2021).

The experiment concerns SARS-CoV-2. The experiment can be described thus: microbe, parasite or virus in culture. The following applies: Severe acute respiratory syndrome coronavirus 2, A549-ACE2, read-out: EC50, SARS-CoV-2.

Consider `CCC(CC)COC(=O)[C@H](C)N[P@](=O)(OC[C@H]1O[C@@](C#N)(c2ccc3c(N)ncnn23)[C@H](O)[C@@H]1O)Oc1ccccc1` [Remdesivir], for which the EC50 (commonly the concentration giving half of the maximal effect) is 79.2 nM.
